No constants are given. Whether binding was seen depends on the method and setting.

Here are results for one molecule from paper PMC10396963, “Fibril formation and ordering of disordered FUS LC driven by hydrophobic interactions” (Nature Chemistry, 2023).

In the assay the target is FUS low-complexity domain (FUS LC, 1–163 amino acids) (human) (UniProt P35637). Put plainly: Brewster angle microscopy; 1.5 uM FUS LC in 20 mM CAPS pH 11, air/buffer interface, up to 6 h after addition; both purified.

B1: FUS low-complexity domain (FUS LC, 1–163 amino acids) (domain or fragment, human, UniProt P35637 1-163, looked up)
chain: MASNDYTQQATQSYGAYPTQPGQGYSQQSSQPYGQQSYSGYSQSTDTSGYGQSSYSSYGQSQNTGYGTQSTPQGYGSTGGYGSSQSSQSSYGQQSSYPGYGQQPAPSSTSGSYGSSSQSSSYGQPQSGSYSQQPSYGGQQQSYGQQQSYNPPQGYGQQNQYNS
notes: Human FUS (fused in sarcoma), N-terminal QGSY-rich low-complexity domain, amino-acid residues 1-163; For FRAP 5% of the protein carried Cy3 (NHS ester); the AFM and BAM samples were unlabelled; also called fused in sarcoma low-complexity domain; wild-type FUS LC; source: E. coli, purified (solubilised in 8 M urea, Ni-NTA, cleaved with tobacco etch virus protease, exchanged to CAPS pH 11)
As to B1, the binding entry is given as “no binding (condition: pH 11 (20 mM CAPS))”.
